# In US20240182427A1, “SOLID DOSAGE FORMS OF A PLASMA KALLIKREIN INHIBITOR” (Rezolute, Inc., priority 2022, published 2024):
# At least one read-out could not be matched to a standard name with certainty.
# Test: Intestinal permeability / solubility classification (BCS)
smiles,measurement,value
"N=C(N)c1ccc(CNC(=O)c2cnn(Cc3ccccc3)c2)cc1 [Compound 1, 1-benzyl-1H-pyrazole-4-carboxylic acid 4-carbamimidoylbenzylamide]",intestinal permeability,low
